Test results taken from publication PMC6453868.
These are yes or no findings as the source states them, for the method shown. Binding seen in cells or lysates may run through a third protein. A result given as binding can be weak or reduced; the word gives no strength. Tags and fused reporters may be left off the sequences shown.

T1: SLC35A4 (putative nucleotide sugar transporter), mVenus- or mCherry-tagged FRET construct (UniProt Q96G79)
T1 sequence: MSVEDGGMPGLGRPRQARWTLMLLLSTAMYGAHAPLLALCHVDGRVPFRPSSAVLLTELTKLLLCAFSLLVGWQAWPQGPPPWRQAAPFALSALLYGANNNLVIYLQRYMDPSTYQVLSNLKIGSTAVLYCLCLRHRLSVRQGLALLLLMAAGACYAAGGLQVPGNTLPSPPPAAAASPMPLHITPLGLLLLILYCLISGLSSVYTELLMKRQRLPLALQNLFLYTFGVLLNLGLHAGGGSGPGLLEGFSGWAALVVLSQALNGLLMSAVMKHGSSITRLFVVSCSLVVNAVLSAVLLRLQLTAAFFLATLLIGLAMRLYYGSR


Columns and labels:
[1] = target: T1, SLC35A4 (putative nucleotide sugar transporter), mVenus- or mCherry-tagged FRET construct; test: FRET or BRET; A4-mVenus with mCherry-tagged transporters co-transfected in COS-7 cells, fixed, Operetta; negative control MGAT2-mVenus and mCherry-AE2
[2] = target: SLC35A4/SLC35A2 transporter pair (BiFC complex) of the BiFC-based FRET assay; test: split reporter + FRET or BRET; BiFC-based FRET: COS-7 cells triple-transfected with VN, VC and mCherry- or mCerulean-tagged constructs, fixed, Operetta; negative controls with one non-interacting construct (B4GALT1, AE2)

Row | binding [1] | binding [2] | Molecule
1 | binds | – | mCherry-tagged SLC35A2 (UDP-Gal transporter, Golgi splice variant)
2 | – | binds | MGAT1, mCherry- or mCerulean-tagged construct of the BiFC-based FRET assay (tag on the cytosolic surface) (enzyme, UniProt P26572 1-445) MLKKQSAGLVLWGAILFVAWNALLLLFFWTRPAPGRPPSVSALDGDPASLTREVIRLAQDAEVELERQRGLLQQIGDALSSQRGRVPTAAPPAQPRVPVTPAPAVIPILVIACDRSTVRRCLDKLLHYRPSAELFPIIVSQDCGHEETAQAIASYGSAVTHIRQPDLSSIAVPPDHRKFQGYYKIARHYRWALGQVFRQFRFPAAVVVEDDLEVAPDFFEYFRATYPLLKADPSLWCVSAWNDNGKEQMVDASRPELLYRTDFFPGLGWLLLAELWAELEPKWPKAFWDDWMRRPEQRQGRACIRPEISRTMTFGRKGVSHGQFFDQHLKFIKLNQQFVHFTQLDLSYLQREAYDRDFLARVYGAPQLQVEKVRTNDRKELGEVRVQYTGRDSFKAFAKALGVMDDLKSGVPRAGYRGIVTFQFRGRRVHLAPPLTWEGYDPSWN
3 | – | binds | MGAT2, mCherry- or mCerulean-tagged construct of the BiFC-based FRET assay (tag on the cytosolic surface) (enzyme, UniProt Q10469 1-447) MRFRIYKRKVLILTLVVAACGFVLWSSNGRQRKNEALAPPLLDAEPARGAGGRGGDHPSVAVGIRRVSNVSAASLVPAVPQPEADNLTLRYRSLVYQLNFDQTLRNVDKAGTWAPRELVLVVQVHNRPEYLRLLLDSLRKAQGIDNVLVIFSHDFWSTEINQLIAGVNFCPVLQVFFPFSIQLYPNEFPGSDPRDCPRDLPKNAALKLGCINAEYPDSFGHYREAKFSQTKHHWWWKLHFVWERVKILRDYAGLILFLEEDHYLAPDFYHVFKKMWKLKQQECPECDVLSLGTYSASRSFYGMADKVDVKTWKSTEHNMGLALTRNAYQKLIECTDTFCTYDDYNWDWTLQYLTVSCLPKFWKVLVPQIPRIFHAGDCGMHHKKTCRPSTQSAQIESLLNNNKQYMFPETLTISEKFTVVAISPPRKNGGWGDIRDHELCKSYRRLQ
4 | – | no binding | MGAT5, mCherry- or mCerulean-tagged construct of the BiFC-based FRET assay (tag on the cytosolic surface) (enzyme, UniProt Q09328 1-741) MALFTPWKLSSQKLGFFLVTFGFIWGMMLLHFTIQQRTQPESSSMLREQILDLSKRYIKALAEENRNVVDGPYAGVMTAYDLKKTLAVLLDNILQRIGKLESKVDNLVVNGTGTNSTNSTTAVPSLVALEKINVADIINGAQEKCVLPPMDGYPHCEGKIKWMKDMWRSDPCYADYGVDGSTCSFFIYLSEVENWCPHLPWRAKNPYEEADHNSLAEIRTDFNILYSMMKKHEEFRWMRLRIRRMADAWIQAIKSLAEKQNLEKRKRKKVLVHLGLLTKESGFKIAETAFSGGPLGELVQWSDLITSLYLLGHDIRISASLAELKEIMKKVVGNRSGCPTVGDRIVELIYIDIVGLAQFKKTLGPSWVHYQCMLRVLDSFGTEPEFNHANYAQSKGHKTPWGKWNLNPQQFYTMFPHTPDNSFLGFVVEQHLNSSDIHHINEIKRQNQSLVYGKVDSFWKNKKIYLDIIHTYMEVHATVYGSSTKNIPSYVKNHGILSGRDLQFLLRETKLFVGLGFPYEGPAPLEAIANGCAFLNPKFNPPKSSKNTDFFIGKPTLRELTSQHPYAEVFIGRPHVWTVDLNNQEEVEDAVKAILNQKIEPYMPYEFTCEGMLQRINAFIEKQDFCHGQVMWPPLSALQVKLAEPGQSCKQVCQESQLICEPSFFQHLNKDKDMLKYKVTCQSSELAKDILVPSFDPKNKHCVFQGDLLLFSCAGAHPRHQRVCPCRDFIKGQVALCKDCL
5 | – | no binding | MGAT4B, mCherry- or mCerulean-tagged construct of the BiFC-based FRET assay (tag on the cytosolic surface) (enzyme, UniProt Q9UQ53 1-548) MRLRNGTFLTLLLFCLCAFLSLSWYAALSGQKGDVVDVYQREFLALRDRLHAAEQESLKRSKELNLVLDEIKRAVSERQALRDGDGNRTWGRLTEDPRLKPWNGSHRHVLHLPTVFHHLPHLLAKESSLQPAVRVGQGRTGVSVVMGIPSVRREVHSYLTDTLHSLISELSPQEKEDSVIVVLIAETDSQYTSAVTENIKALFPTEIHSGLLEVISPSPHFYPDFSRLRESFGDPKERVRWRTKQNLDYCFLMMYAQSKGIYYVQLEDDIVAKPNYLSTMKNFALQQPSEDWMILEFSQLGFIGKMFKSLDLSLIVEFILMFYRDKPIDWLLDHILWVKVCNPEKDAKHCDRQKANLRIRFKPSLFQHVGTHSSLAGKIQKLKDKDFGKQALRKEHVNPPAEVSTSLKTYQHFTLEKAYLREDFFWAFTPAAGDFIRFRFFQPLRLERFFFRSGNIEHPEDKLFNTSVEVLPFDNPQSDKEALQEGRTATLRYPRSPDGYLQIGSFYKGVAEGEVDPAFGPLEALRLSIQTDSPVWVILSEIFLKKAD
